Laboratory results published in paper PMC8551951 (Biophysical Reviews, 2021).

Amino acid sequences for entries named in this document (tags omitted).
UniProt Q8NER1, whole entry: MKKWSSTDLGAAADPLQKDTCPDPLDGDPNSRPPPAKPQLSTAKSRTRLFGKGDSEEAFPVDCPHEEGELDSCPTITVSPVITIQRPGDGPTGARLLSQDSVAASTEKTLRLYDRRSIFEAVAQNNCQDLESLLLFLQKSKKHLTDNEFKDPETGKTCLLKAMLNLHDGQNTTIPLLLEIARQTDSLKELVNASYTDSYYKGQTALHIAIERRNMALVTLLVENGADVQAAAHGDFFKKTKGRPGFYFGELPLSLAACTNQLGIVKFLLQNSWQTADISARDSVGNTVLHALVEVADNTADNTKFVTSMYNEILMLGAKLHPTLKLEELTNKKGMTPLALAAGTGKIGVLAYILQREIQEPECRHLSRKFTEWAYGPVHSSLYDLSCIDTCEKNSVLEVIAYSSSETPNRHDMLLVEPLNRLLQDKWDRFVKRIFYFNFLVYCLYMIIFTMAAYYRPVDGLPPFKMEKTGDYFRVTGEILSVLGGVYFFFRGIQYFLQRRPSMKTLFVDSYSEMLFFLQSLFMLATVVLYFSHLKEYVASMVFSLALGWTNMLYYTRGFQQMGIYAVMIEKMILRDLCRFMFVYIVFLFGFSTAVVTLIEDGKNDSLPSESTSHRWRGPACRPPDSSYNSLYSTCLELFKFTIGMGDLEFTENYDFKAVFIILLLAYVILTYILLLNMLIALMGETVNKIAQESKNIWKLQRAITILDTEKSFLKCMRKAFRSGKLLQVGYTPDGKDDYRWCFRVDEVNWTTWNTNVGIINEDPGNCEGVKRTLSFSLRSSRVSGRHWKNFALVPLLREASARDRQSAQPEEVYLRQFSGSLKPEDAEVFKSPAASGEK

Molecular target: TRPV1 channel heterologously expressed in HEK293 cells (Homo sapiens, UniProt Q8NER1)
Assay: cell-based
Conditions: HEK293, read-out: % inhibition of capsaicin-induced TRPV1 currents

inhibition at 1 µM: 40 ± 6%
SMILES: C(=C\c1ccccc1)/CN1CCN(C(c2ccccc2)c2ccccc2)CC1 [Cinnarizine]
